Measurements reported in PubChem BioAssay AID504808 (Drosophila RNAi Screening Center, 2011).
Purpose: 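Chromatin factors that keep E2F targets switched off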 (primary screen). Cell system: Drosophila S2 cells. Reagents: long dsRNA against Drosophila genes. Detection: 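Dual luciferase plate measurements; E2F-specific signal taken as firefly over Renilla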. Direction: E2F firefly: higher = more E2F reporter activity; Renilla normaliser: higher = more normaliser reporter signal. Rule for the call: 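a knock-down counted as active when the firefly/Renilla E2F signal rose above 50%, a threshold chosen arbitrarily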.
In all, the deposit lists about 21,000 reagents; below is a random part of those that have a named target and a result. In the full data, 18 (0.084%) were called active. 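Raw counts without plate normalisation, one of two replicates; the ratio scores behind the calls were not deposited.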 Entries without a mark were called inactive. Names joined by + are all predicted targets of the reagent. Not stated in the record: the amount of reagent, the time to read-out.

no.	predicted target	amplicon	E2F firefly, rep 1	Renilla normaliser, rep 1
1	CG2816	DRSC00539	1.65e5	5327
2	ct (cut)	DRSC18757	38878	3270
3	CG10513	DRSC14248	1630	1064
4	Srrm1 (Serine-arginine repetitive matrix 1)	DRSC09835	1.18e5	7528
5	Gr2a (Gustatory receptor 2a)	DRSC18603	87001	4663
6	CG9130 + CG9133	DRSC08624	1.00e5	4270
7	CG9130 + CG9133	DRSC08625	74653	4116
8	Wnt6 (Wnt oncogene analog 6)	DRSC02795	1.58e5	5752
9	Rhp (Rhophilin)	DRSC20279	1.60e5	6145
10	CG1137	DRSC12529	1.55e5	6442
11	CG3088	DRSC10352	69286	3221
12	CG4210	DRSC15551	98905	5365
13	Dmtn (Dementin)	DRSC12513	71538	3262
14	CG14227	DRSC19584	62084	3895
15	pros (prospero)	DRSC12856	87963	2731
16	pros (prospero)	DRSC17032	83526	3700
17	lqfR (liquid facets-Related)	DRSC14703	61679	2882
18	lqfR (liquid facets-Related)	DRSC14704	1.33e5	6936
19	GNBP2 (Gram-negative bacteria binding protein 2)	DRSC10404	78596	3349
20	CG12112	DRSC17809	7643	696
21	Rgk1 (retired record)	DRSC07343	1.42e5	4994
22	Rgk1 (retired record)	DRSC07344	1.19e5	3797
23	PpN58A (Protein phosphatase N at 58A)	DRSC04642	85359	3595
24	AdamTS-B (ADAM metallopeptidase with thrombospondin type 1 motif B)	DRSC18346	1.11e5	5760
25	hng3 (hinge3)	DRSC08367	97209	4057
26	CG6674	DRSC10692	75245	3314
27	par-6	DRSC20359	1.44e5	5011
28	CG6724	DRSC02983	1.36e5	5380
29	ckn (caskin)	DRSC06149	3116	209
30	uif (uninflatable)	DRSC00963	1.09e5	5041
31	uif (uninflatable)	DRSC03427	1.41e5	5176
32	Idh3g	DRSC15699	1.16e5	5840
33	CG4988	DRSC02800	1.51e5	5182
34	c(2)M (crossover suppressor on 2 of Manheim)	DRSC01922	92926	3478
35	CG3764	DRSC10375	74212	3532
36	Klp54D (Kinesin-like protein at 54D)	DRSC07450	1.39e5	5054
37	mRpL4 (mitochondrial ribosomal protein L4)	DRSC03562	77525	3416
38	CG7378	DRSC20041	1.42e5	6048
39	PIG-Wa (Phosphatidylinositol glycan anchor biosynthesis class W a)	DRSC00728	1.49e5	4820
40	Eh (Eclosion hormone)	DRSC16660	1.11e5	5819
41	CG31274 + MESK4	DRSC13202	82220	2527
42	CG8675	DRSC20117	1.52e5	5382
43	Osi23 (Osiris 23)	DRSC15074	1.27e5	6676
44	SdhBL (Succinate dehydrogenase, subunit B (iron-sulfur)-like)	DRSC20039	1.43e5	6791
45	CG16786	DRSC04281	1.18e5	4902
46	CG6153	DRSC02935	76908	3357
47	Nos (Nitric oxide synthase)	DRSC03381	71249	3121
48	Cpr47Eb (Cuticular protein 47Eb)	DRSC06345	96571	4851
49	CG4021	DRSC04439	90746	3735
50	Cht12 (Chitinase 12)	DRSC03844	1.12e5	4367
51	ebo (ellipsoid body open)	DRSC18787	1926	904
52	Rbm13 (RNA-binding motif protein 13)	DRSC17749	68563	4660
53	Ddc (Dopa decarboxylase)	DRSC03314	92165	4170
54	dpy (dumpy)	DRSC00233	1.38e5	6189
55	dpy (dumpy)	DRSC00234	1.39e5	5594
56	dpy (dumpy)	DRSC00472	1.51e5	5035
57	ND-39 (NADH dehydrogenase (ubiquinone) 39 kDa subunit)	DRSC11791	83468	3619

3 neighbouring records already listed, quoted:
no.	predicted target	amplicon	E2F firefly, rep 1	Renilla normaliser, rep 1
6	CG9130 + CG9133	DRSC08624	1.00e5	4270
7	CG9130 + CG9133	DRSC08625	74653	4116
8	Wnt6 (Wnt oncogene analog 6)	DRSC02795	1.58e5	5752
